Measurements reported in PubChem BioAssay AID1508588 (Peter MacCallum Cancer Centre, 2020).

Assay: 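Which gene losses make BRAF-mutant melanoma cells more responsive to vemurafenib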 (primary screen)
System: human WM266.4 melanoma cells (BRAF V600 mutant)
Reagent: siRNA pool against human genes, 40 nM
Time to read-out: 96 h from transfection to read-out
Treatment: vemurafenib 300 nM (about IC25), added 48 h after transfection, for 48 h; comparison arm got DMSO vehicle only
Measured: 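Ratios to non-targeting siRNA for cell gain, counted as DAPI nuclei after minus before drug and averaged over two replicates, and for absorbance-read medium lactate per cell; both binned into fold-change classes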
Scale: cell gain with vemurafenib: higher = more cell gain than with non-targeting siRNA; lactate per cell with vemurafenib: higher = more lactate made per cell
Active means: 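Enhancement is called by pairing each knock-down's vehicle-arm and drug-arm fold-change classes for viability or glycolysis; which class combinations qualify is not given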
Calls: active = enhances vemurafenib effect; inactive = no enhancement seen
In all, the deposit lists about 18,000 reagents; shown is a random part of them. Of all reagents, 790 (4.4%) were called active. 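Calls rest on a combination of fold-change classes in drug and vehicle arms, not all shown here.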

Gene	cell gain with vemurafenib	lactate per cell with vemurafenib	Call
EPM2A	0.73	0.61	inactive
DACH1	0.45	1.46	inactive
KCNA1	0.52	0.88	inactive
OMP	0.25	3.16	inactive
CATSPERT	0.29	2.34	inactive
KIF12	0.23	0.33	inactive
SHMT1	0.83	0.46	active
LRRC4B	0.57	1.98	inactive
KDM3A	0.81	0.46	active
DNAJB2	0.46	0.76	inactive
SHISA4	0.59	0.49	inactive
A4GNT	0.48	0.54	inactive
PEBP4	0.4	0.92	inactive
MYADM	0.72	1.12	inactive
CDPF1	0.27	1.64	inactive
PDXP	0.6	2.08	inactive
NPR1	0.68	0.43	inactive
SCTR	0.59	2.38	inactive
PRXL2B	0.69	0.72	inactive
CMPK2	0.5	1.09	inactive
TMEM156	0.46	0.62	inactive
IQSEC1	0.36	1.7	inactive
PELO	0.3	1.48	inactive
DPYD	0.9	0.5	inactive
SPINK2	0.36	0.51	inactive
KCNH1	0.58	0.27	inactive
UMODL1	1.1	1.36	inactive
SYT1	0.15	0.27	inactive
CCDC197	0.14	1.67	inactive
PRAF2	0.52	0.52	inactive
DLG2	1.08	0.86	inactive
ERP27	0.3	1.6	inactive
ADGRD2	0.53	1.3	inactive
CCDC178	0.28	0.77	inactive
ZNF846	0.49	1.12	inactive
KIR2DL1	0.24	1.29	inactive
EPHB1	0.57	1.55	inactive
SIRT5	0.98	0.82	inactive
CABP7	0.9	0.69	inactive
STARD7	0.58	1.19	inactive
TMEM154	0.66	0.72	inactive
ST3GAL5	0.89	0.99	inactive
DUSP13B	0.69	0.44	inactive
LYPLAL1	0.85	0.86	inactive
RACK1	0.43	0.28	inactive
IL10RA	0.25	0.77	inactive
TMEM130	0.84	0.61	inactive
GRHL1	0.74	0.64	inactive
PKHD1	0.44	0.74	inactive
PLAA	-0.01	1.28	inactive
ZSWIM1	0.71	1.01	inactive
H3C6	0.84	0.7	inactive
FTSJ1	0.63	1.31	inactive
AGAP3	0.52	1.05	inactive
KMT2C	1.01	0.8	inactive
RGMA	0.41	0.32	inactive
RARS1	0.33	1.72	inactive

Reprinted from above for reference:
Gene	cell gain with vemurafenib	lactate per cell with vemurafenib	Call
ADGRD2	0.53	1.3	inactive
CCDC178	0.28	0.77	inactive
ZNF846	0.49	1.12	inactive
KIR2DL1	0.24	1.29	inactive
EPHB1	0.57	1.55	inactive
SIRT5	0.98	0.82	inactive
